These results are taken from paper doi:10.1101/073015.

The target in this assay is T1, HT1 fused to cLUC (Arabidopsis thaliana) (UniProt Q2MHE4).
T1 sequence: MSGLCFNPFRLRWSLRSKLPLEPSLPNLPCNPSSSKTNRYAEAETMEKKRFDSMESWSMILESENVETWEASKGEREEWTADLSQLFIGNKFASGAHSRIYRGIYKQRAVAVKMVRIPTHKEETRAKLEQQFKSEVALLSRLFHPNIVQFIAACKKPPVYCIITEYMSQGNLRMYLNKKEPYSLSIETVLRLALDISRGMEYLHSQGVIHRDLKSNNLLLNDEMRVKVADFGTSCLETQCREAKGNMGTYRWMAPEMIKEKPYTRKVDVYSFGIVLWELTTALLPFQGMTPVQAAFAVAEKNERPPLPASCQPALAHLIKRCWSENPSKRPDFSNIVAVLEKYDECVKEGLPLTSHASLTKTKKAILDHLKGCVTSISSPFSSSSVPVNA
Briefly: split reporter.

Results are given in words; binding and its absence hold for the method and conditions named. In cells and extracts the contact can be indirect. Some results given as binding are weak or reduced against the parent protein; the word gives no strength. Where a sequence is shown, tags or fusion partners need not be part of it.

B1: MPK12 fused to the N-terminal half of luciferase (nLUC) (enzyme, UniProt Q8GYQ5 1-372)
chain: MSGESSSGSTEHCIKVVPTHGGRYVQYNVYGQLFEVSRKYVPPIRPIGRGACGIVCAAVNSVTGEKVAIKKIGNAFDNIIDAKRTLREIKLLRHMDHENVITIKDIVRPPQRDIFNDVYIVYELMDTDLQRILRSNQTLTSDQCRFLVYQLLRGLKYVHSANILHRDLRPSNVLLNSKNELKIGDFGLARTTSDTDFMTEYVVTRWYRAPELLLNCSEYTAAIDIWSVGCILGEIMTGQPLFPGKDYVHQLRLITELVGSPDNSSLGFLRSDNARRYVRQLPRYPKQQFAARFPKMPTTAIDLLERMLVFDPNRRISVDEALGHAYLSPHHDVAKEPVCSTPFSFDFEHPSCTEEHIKELIYKESVKFNPDH
On to B1, for which the binding result is “binds”.
